# The list shows a part of the results.
# Assays:
# Test in all cases: glycan array binding signal (z-score within array); higher = stronger binding
# Conditions in all cases: glycan notation: IUPAC condensed, linker removed
# [1] = target: Man(a1-3)[Man(a1-6)]Man(a1-6)[Man(a1-3)]Man
# Procedure, shortened: (§1)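 From the Consortium for Functional Glycomics database, 3228 arrays were curated, keeping only those whose protein sequence was available. Binding is given as a within-array Z-score averaged across arrays sharing a protein sequence and across linkers. Negative Z-scores can be read as non-binding.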
# [2] = target: Man(a1-3)[Man(a1-6)]Man(a1-6)[Man(a1-3)]Man(b1-4)GlcNAc(b1-4)GlcNAc
# Procedure, shortened: as §1
# [3] = target: Man(a1-3)[Man(a1-6)]Man(b1-4)GlcNAc(b1-4)GlcNAc
# Procedure, shortened: as §1
# [4] = target: Man(a1-3)[Man(a1-6)]Man(b1-4)GlcNAc(b1-4)[Fuc(a1-6)]GlcNAc
# Procedure, shortened: as §1
# [5] = target: Man(a1-6)Man
# Procedure, shortened: as §1
# [6] = target: Man(b1-4)GlcNAc
# Procedure, shortened: as §1
# [7] = target: MurNAc(b1-4)GlcNAc
# Procedure, shortened: as §1
# [8] = target: Neu5Ac(a2-3)Gal
# Procedure, shortened: as §1
# [9] = target: Neu5Ac(a2-3)Gal(b1-3)GalNAc
# Procedure, shortened: as §1
# [10] = target: Neu5Ac(a2-3)Gal(b1-3)GalNAc(b1-3)Gal(a1-4)Gal(b1-4)Glc
# Procedure, shortened: as §1
# [11] = target: Neu5Ac(a2-3)Gal(b1-3)GalNAc(b1-4)Gal(b1-4)Glc
# Procedure, shortened: as §1
# [12] = target: Neu5Ac(a2-3)Gal(b1-3)GalNAc(b1-4)[Neu5Ac(a2-3)]Gal(b1-4)Glc
# Procedure, shortened: as §1
# [13] = target: Neu5Ac(a2-3)Gal(b1-3)GalNAc(b1-4)[Neu5Ac(a2-8)Neu5Ac(a2-3)]Gal(b1-4)Glc
# Procedure, shortened: as §1
# [14] = target: Neu5Ac(a2-3)Gal(b1-3)GalNAc6S
# Procedure, shortened: as §1
# [15] = target: Neu5Ac(a2-3)Gal(b1-3)GlcNAc
# Procedure, shortened: as §1
# [16] = target: Neu5Ac(a2-3)Gal(b1-3)GlcNAc(b1-2)Man
# Procedure, shortened: as §1
# [17] = target: Neu5Ac(a2-3)Gal(b1-3)GlcNAc(b1-2)Man(a1-3)[GlcNAc(b1-4)][Neu5Ac(a2-3)Gal(b1-3)GlcNAc(b1-2)Man(a1-6)]Man(b1-4)GlcNAc(b1-4)GlcNAc
# Procedure, shortened: as §1
# [18] = target: Neu5Ac(a2-3)Gal(b1-3)GlcNAc(b1-2)Man(a1-3)[Neu5Ac(a2-3)Gal(b1-3)GlcNAc(b1-2)Man(a1-6)]Man(b1-4)GlcNAc(b1-4)GlcNAc
# Procedure, shortened: as §1
# [19] = target: Neu5Ac(a2-3)Gal(b1-3)GlcNAc(b1-2)[Neu5Ac(a2-3)Gal(b1-3)GlcNAc(b1-4)]Man(a1-6)[Neu5Ac(a2-3)Gal(b1-3)GlcNAc(b1-2)Man(a1-3)]Man(b1-4)GlcNAc(b1-4)GlcNAc
# Procedure, shortened: as §1
# [20] = target: Neu5Ac(a2-3)Gal(b1-3)GlcNAc(b1-3)Gal(b1-3)GlcNAc
# Procedure, shortened: as §1
# [21] = target: Neu5Ac(a2-3)Gal(b1-3)GlcNAc(b1-3)Gal(b1-4)GlcNAc
# Procedure, shortened: as §1
# [22] = target: Neu5Ac(a2-3)Gal(b1-3)GlcNAc(b1-3)GalNAc
# Procedure, shortened: as §1
# [23] = target: Neu5Ac(a2-3)Gal(b1-3)GlcNAc(b1-6)GalNAc
# Procedure, shortened: as §1
# [24] = target: Neu5Ac(a2-3)Gal(b1-3)GlcNAc6S
# Procedure, shortened: as §1
# [25] = target: Neu5Ac(a2-3)Gal(b1-3)[Fuc(a1-4)]GlcNAc
# Procedure, shortened: as §1
# [26] = target: Neu5Ac(a2-3)Gal(b1-3)[Fuc(a1-4)]GlcNAc(b1-3)Gal(b1-3)[Fuc(a1-4)]GlcNAc
# Procedure, shortened: as §1
# [27] = target: Neu5Ac(a2-3)Gal(b1-3)[Fuc(a1-4)]GlcNAc(b1-3)Gal(b1-4)[Fuc(a1-3)]GlcNAc
# Procedure, shortened: as §1
# [28] = target: Neu5Ac(a2-3)Gal(b1-3)[GlcNAc(b1-6)]GalNAc
# Procedure, shortened: as §1
# [29] = target: Neu5Ac(a2-3)Gal(b1-3)[Neu5Ac(a2-6)]GalNAc
# Procedure, shortened: as §1
# [30] = target: Neu5Ac(a2-3)Gal(b1-3)[Neu5Ac(a2-6)]GlcNAc(b1-3)[Fuc(a1-3)[Gal(b1-4)]GlcNAc(b1-6)]Gal(b1-4)Glc
# Procedure, shortened: as §1
# [31] = target: Neu5Ac(a2-3)Gal(b1-3)]Neu5Ac(a2-3)Gal(b1-4)]GlcNAc
# Procedure, shortened: as §1
# [32] = target: Neu5Ac(a2-3)Gal(b1-4)Glc
# Procedure, shortened: as §1
# [33] = target: Neu5Ac(a2-3)Gal(b1-4)GlcNAc
# Procedure, shortened: as §1
# [34] = target: Neu5Ac(a2-3)Gal(b1-4)GlcNAc(b1-2)Man
# Procedure, shortened: as §1
# [35] = target: Neu5Ac(a2-3)Gal(b1-4)GlcNAc(b1-2)Man(a1-3)[GlcNAc(b1-4)][Neu5Ac(a2-3)Gal(b1-4)GlcNAc(b1-2)Man(a1-6)]Man(b1-4)GlcNAc(b1-4)GlcNAc
# Procedure, shortened: as §1
# [36] = target: Neu5Ac(a2-3)Gal(b1-4)GlcNAc(b1-2)Man(a1-3)[Neu5Ac(a2-3)Gal(b1-4)GlcNAc(b1-2)Man(a1-6)]Man(b1-4)GlcNAc(b1-4)GlcNAc
# Procedure, shortened: as §1
# [37] = target: Neu5Ac(a2-3)Gal(b1-4)GlcNAc(b1-2)Man(a1-3)[Neu5Ac(a2-3)Gal(b1-4)GlcNAc(b1-2)Man(a1-6)]Man(b1-4)GlcNAc(b1-4)[Fuc(a1-6)]GlcNAc
# Procedure, shortened: as §1
# [38] = target: Neu5Ac(a2-3)Gal(b1-4)GlcNAc(b1-2)Man(a1-3)[Neu5Ac(a2-6)Gal(b1-4)GlcNAc(b1-2)Man(a1-6)]Man(b1-4)GlcNAc(b1-4)GlcNAc
# Procedure, shortened: as §1
binder,measurement,setting,value
Clec39 (Caenorhabditis elegans) (protein) MTSFYDNSSSSSKPVPLKTSRAQKIQILIFDNWKLILYGAISTLILVLAIMFSTLFFALPAANCDENSEPTKYYTTNAEITTTITTTNQKTTSTASSHLTTISSSATQIYSESSSSSTSQSTFTQSPPEISTTTIAPSDFSCQHGFTLVNNKCWKLVTSNQARPDADKICNGYGGATLFSIKSEQDNRAMIHFVKGQDIDFLWSGLLCSAGEPISCIWDIENGSTANYSNFADGFPNIVYGNCVYFITSGDEAGQWGNEQCGQVMNFVCELPATFQGKDGCKNNYEKSCYLRFDLNLTVPQAQNFCLEKCANLVSIHSANEVRFIMTIYDFIGEILIGALAPAQDFIYWLDGTPANYNNLKFFYNSTCVHMTVAPGMQNVGKWFTRFCTETGKFLCKRSIKNSCT,glycan array binding signal (z-score),[1],1.41
same,glycan array binding signal (z-score),[2],0.164
same,glycan array binding signal (z-score),[3],-0.035
same,glycan array binding signal (z-score),[4],0.149
same,glycan array binding signal (z-score),[5],0.877
same,glycan array binding signal (z-score),[6],0.705
same,glycan array binding signal (z-score),[7],0.196
same,glycan array binding signal (z-score),[8],-1.96
same,glycan array binding signal (z-score),[9],-0.668
same,glycan array binding signal (z-score),[10],-0.742
same,glycan array binding signal (z-score),[11],-0.356
same,glycan array binding signal (z-score),[12],0.388
same,glycan array binding signal (z-score),[13],-1.24
same,glycan array binding signal (z-score),[14],-1.02
same,glycan array binding signal (z-score),[15],-0.787
same,glycan array binding signal (z-score),[16],-0.917
same,glycan array binding signal (z-score),[17],0.452
same,glycan array binding signal (z-score),[18],0.023
same,glycan array binding signal (z-score),[19],0.47
same,glycan array binding signal (z-score),[20],-0.142
same,glycan array binding signal (z-score),[21],-0.381
same,glycan array binding signal (z-score),[22],-0.569
same,glycan array binding signal (z-score),[23],0.87
same,glycan array binding signal (z-score),[24],-0.224
same,glycan array binding signal (z-score),[25],1.01
same,glycan array binding signal (z-score),[26],-0.873
same,glycan array binding signal (z-score),[27],1.35
same,glycan array binding signal (z-score),[28],-0.413
same,glycan array binding signal (z-score),[29],-0.738
same,glycan array binding signal (z-score),[30],0.882
same,glycan array binding signal (z-score),[31],0.728
same,glycan array binding signal (z-score),[32],0.745
same,glycan array binding signal (z-score),[33],-0.853
same,glycan array binding signal (z-score),[34],0.524
same,glycan array binding signal (z-score),[35],1.43
same,glycan array binding signal (z-score),[36],-0.756
same,glycan array binding signal (z-score),[37],-0.137
same,glycan array binding signal (z-score),[38],2.22

# Three entries drawn at random from the list so far:
binder,measurement,setting,value
Clec39 (Caenorhabditis elegans) (protein) MTSFYDNSSSSSKPVPLKTSRAQKIQILIFDNWKLILYGAISTLILVLAIMFSTLFFALPAANCDENSEPTKYYTTNAEITTTITTTNQKTTSTASSHLTTISSSATQIYSESSSSSTSQSTFTQSPPEISTTTIAPSDFSCQHGFTLVNNKCWKLVTSNQARPDADKICNGYGGATLFSIKSEQDNRAMIHFVKGQDIDFLWSGLLCSAGEPISCIWDIENGSTANYSNFADGFPNIVYGNCVYFITSGDEAGQWGNEQCGQVMNFVCELPATFQGKDGCKNNYEKSCYLRFDLNLTVPQAQNFCLEKCANLVSIHSANEVRFIMTIYDFIGEILIGALAPAQDFIYWLDGTPANYNNLKFFYNSTCVHMTVAPGMQNVGKWFTRFCTETGKFLCKRSIKNSCT,glycan array binding signal (z-score),[4],0.149
same,glycan array binding signal (z-score),[11],-0.356
same,glycan array binding signal (z-score),[27],1.35

# Reference: the supplement of paper PMC8728848
